This experiment has as its target T1, mouse IL-10 receptor (IL-10R) (mouse) (UniProt Q61727).
T1 sequence (looked up): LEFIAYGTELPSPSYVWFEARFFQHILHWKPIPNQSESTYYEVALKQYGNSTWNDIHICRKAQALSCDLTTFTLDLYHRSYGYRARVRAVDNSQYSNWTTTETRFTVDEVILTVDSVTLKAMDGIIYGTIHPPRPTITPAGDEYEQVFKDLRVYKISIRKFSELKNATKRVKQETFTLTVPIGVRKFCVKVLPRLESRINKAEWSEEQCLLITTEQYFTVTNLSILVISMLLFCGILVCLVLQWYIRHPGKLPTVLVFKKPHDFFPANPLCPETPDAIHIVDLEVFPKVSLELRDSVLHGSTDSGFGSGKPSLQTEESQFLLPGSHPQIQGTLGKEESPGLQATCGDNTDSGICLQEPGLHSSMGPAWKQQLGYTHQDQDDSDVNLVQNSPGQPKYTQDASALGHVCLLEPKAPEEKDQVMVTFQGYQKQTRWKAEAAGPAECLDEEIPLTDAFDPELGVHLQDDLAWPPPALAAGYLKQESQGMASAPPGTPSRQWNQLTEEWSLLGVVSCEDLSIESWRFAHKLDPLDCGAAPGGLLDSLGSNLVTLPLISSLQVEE
The experiment in a line: flow cytometry of mRNA-electroporated mouse NOD CD4 T cells, 48 h; loss of anti-IL-10R mAb staining. A general note: In flow cytometry, cells or beads pass a laser one at a time.

This note sets out measurements from US20210040169A1.

Results are given in words; binding and its absence hold for the method and conditions named. Some binding calls cover weakened binding; strength is not graded here.

For the substance “mouse memIL-10 (membrane-anchored single-chain homodimeric IL-10, short linker) (from UniProt P18893 19-178; P18893 19-178) (ligand)”, the binding result is recorded as “binds”.
